The other results are listed elsewhere or left out.
molecular target: T1, OsSMF1 (Oryza sativa, UniProt Q6ZLB0 1-436); experiment: protein-binding microarray (RPBM); PBS, 2% BSA, 51.3 ng/ul salmon testes DNA, 50 uM zinc acetate, 200 nM TF, 25 C, 1 h; high values mean tight binding; conditions: protein: recombinant; tags: N-terminal polyhistidine and DsRed monomer fusion (pET32a); chain copies: 2; label: CyDye5-dUTP incorporated in the synthesized complementary strand; 3' TTTTT single-stranded linker to array surface; dsDNA, one strand shown
T1 sequence: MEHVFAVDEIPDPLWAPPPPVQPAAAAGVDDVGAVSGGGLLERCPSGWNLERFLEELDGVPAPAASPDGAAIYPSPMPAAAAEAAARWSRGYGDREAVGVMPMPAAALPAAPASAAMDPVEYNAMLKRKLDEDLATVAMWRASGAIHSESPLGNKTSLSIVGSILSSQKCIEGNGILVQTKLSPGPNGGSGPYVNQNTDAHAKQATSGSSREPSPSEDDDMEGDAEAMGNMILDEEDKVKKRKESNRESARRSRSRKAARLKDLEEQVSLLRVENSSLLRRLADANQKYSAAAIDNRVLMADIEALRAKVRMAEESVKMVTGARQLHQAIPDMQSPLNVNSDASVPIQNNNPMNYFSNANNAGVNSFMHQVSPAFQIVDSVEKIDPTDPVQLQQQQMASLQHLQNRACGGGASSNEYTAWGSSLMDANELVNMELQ
Procedure, shortened: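 The binding signal is fluorescence intensity per array feature (arbitrary units). Readings came from an Axon 4000B scanner after a washed, 2% BSA-blocked, double-stranded custom Agilent array had been incubated for 1 h at 25 °C with 200 nM protein and 50 µM zinc acetate. The protein was a Ni–NTA-purified transcription factor fused N-terminally to polyhistidine and DsRed, expressed in E. coli BL21-CodonPlus.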

| Sequence | binding signal |
| --- | --- |
| GTTGCCGCTACACCTTCCACCTCAGCACCCTCGATGGCCTCGGAGTCACCTAGTGCAG | 14600 fluorescence intensity (a.u.) |
| CAACTGATCACTACTTCGGGTGCAAAGTTGTAAACTCAACCGGAGTCACCTAGTGCAG | 3310 fluorescence intensity (a.u.) |
| ACTGACTCTGACACACATCCTATCAAGCCTATACACATATCGGAGTCACCTAGTGCAG | 4760 fluorescence intensity (a.u.) |
| GAACTCTGCAGAATTATCATGTCACCAGTGTCCGCCAATACGGAGTCACCTAGTGCAG | 3400 fluorescence intensity (a.u.) |
| TTCGGCCGCGCCTACCTCTTCGACCACGTGTACGCGTCCTCGGAGTCACCTAGTGCAG | 6880 fluorescence intensity (a.u.) |
| TGCCATTTCTAAAGCTCAGACGCTATTTTGAATCCCACAACGGAGTCACCTAGTGCAG | 31200 fluorescence intensity (a.u.) |
| AGCGTACGTGTGGTTTGCGACGTGGTGTGCGTGGGCGGTGCGGAGTCACCTAGTGCAG | 4450 fluorescence intensity (a.u.) |
| CAACAAATTTAAATTTATAGACGTCACCATACTGAAGGCGCGGAGTCACCTAGTGCAG | 5460 fluorescence intensity (a.u.) |
| GCCGCCAGGGCGATCGACACGCGGTTCAGCAGCCGCCGGACGGAGTCACCTAGTGCAG | 3170 fluorescence intensity (a.u.) |
| ATATACTTGTACTCCAGTACTGTAGCTGGTAGCAGTCCAACGGAGTCACCTAGTGCAG | 16500 fluorescence intensity (a.u.) |
| AATCCTACAGCTACGCCTACGACGACGCCACCTCCACCTTCGGAGTCACCTAGTGCAG | 4110 fluorescence intensity (a.u.) |
| CAGTGCCAGGCTGCCAGCCACGCCCTCCCAGCATCTCCTGCGGAGTCACCTAGTGCAG | 4400 fluorescence intensity (a.u.) |
| GTCGCCACCACCACTATATATATGTGCATGCCGGCCGGCGCGGAGTCACCTAGTGCAG | 3760 fluorescence intensity (a.u.) |
| GCTAAACAACACAGAGCTGAGGGTTACGTATTACGCGCGTCGGAGTCACCTAGTGCAG | 3630 fluorescence intensity (a.u.) |
| TTGTCGATTGACTTGTGGGGTCTACGTGGGACTCAACCGCCGGAGTCACCTAGTGCAG | 5290 fluorescence intensity (a.u.) |
| TAAAAGCCGTGGGATCGTTGGAGCGCCACGTCAGCAATTTCGGAGTCACCTAGTGCAG | 32300 fluorescence intensity (a.u.) |
| GAGTCGTGTTTGGTTGGTATGAAGATGTGTGATAAGGGCACGGAGTCACCTAGTGCAG | 21800 fluorescence intensity (a.u.) |
| GACCATTGCCACCGCCTACGGTCCCGCGGGGATTTGGCCACGGAGTCACCTAGTGCAG | 3980 fluorescence intensity (a.u.) |
| ATTCCGAGCTGACGCCGCCGTGCCGTCGTCGACCAACTCTCGGAGTCACCTAGTGCAG | 4260 fluorescence intensity (a.u.) |
| CTAGAACTACACGTCCTGAGATATTTGATGACCTCATGTGCGGAGTCACCTAGTGCAG | 4280 fluorescence intensity (a.u.) |
| CACCCACCCGGAAGCCACTGATTCACGCAGCCACAAGCTGCGGAGTCACCTAGTGCAG | 3980 fluorescence intensity (a.u.) |
| AAGAGGGGAACAGAGAAGATGACGTGTCATACTGACATTTCGGAGTCACCTAGTGCAG | 15200 fluorescence intensity (a.u.) |
| AAACCGTGGCAGTGGTTAGTTCCCTTCAAACTTACGGAAACGGAGTCACCTAGTGCAG | 30500 fluorescence intensity (a.u.) |
| CGCGACCGCGACGTCGTCATCTAACGCGGACGCCCATCTCCGGAGTCACCTAGTGCAG | 5270 fluorescence intensity (a.u.) |
| GCCGCCACATCGATCTACCTACGCATGCGTTTCCTCCTCCCGGAGTCACCTAGTGCAG | 4560 fluorescence intensity (a.u.) |
| GTGATTGTGTCATTTCTAGTACTAATAAACTACTCCTTCCCGGAGTCACCTAGTGCAG | 3650 fluorescence intensity (a.u.) |
| TTTTCCGGATCGAATTGCCACGTAAGCGCCACGTCAATGACGGAGTCACCTAGTGCAG | 48300 fluorescence intensity (a.u.) |

Single values from the results shown.
GAGTCGTGTTTGGTTGGTATGAAGATGTGTGATAAGGGCACGGAGTCACCTAGTGCAG – binding signal: 21800 fluorescence intensity (a.u.)
ACTGACTCTGACACACATCCTATCAAGCCTATACACATATCGGAGTCACCTAGTGCAG – binding signal: 4760 fluorescence intensity (a.u.)
GTTGCCGCTACACCTTCCACCTCAGCACCCTCGATGGCCTCGGAGTCACCTAGTGCAG – binding signal: 14600 fluorescence intensity (a.u.)
GCTAAACAACACAGAGCTGAGGGTTACGTATTACGCGCGTCGGAGTCACCTAGTGCAG – binding signal: 3630 fluorescence intensity (a.u.)

(further entries)

| Sequence | binding signal |
| --- | --- |
| CCACAAACCAAACCAACCCAAGATATCCTGATGAACCAAACGGAGTCACCTAGTGCAG | 35300 fluorescence intensity (a.u.) |
| GCCACCACCGCCCATTCTCACGTCGGACGACGAGCTTGTCCGGAGTCACCTAGTGCAG | 3420 fluorescence intensity (a.u.) |
| TCGTCGCCTCGCCTCGCCGGCGCCACCTCCGCATTCCGTTCGGAGTCACCTAGTGCAG | 4770 fluorescence intensity (a.u.) |
| GTTAACTTGTCTTGACAGTTGACACGTAGATTTGCGGGCGCGGAGTCACCTAGTGCAG | 9580 fluorescence intensity (a.u.) |
| CTTTGCGACCTCCCAGTCAATCCTACTAGTTAGTATACTTCGGAGTCACCTAGTGCAG | 3440 fluorescence intensity (a.u.) |
| GTAATTCTGTTGTCATACGGTTTATTGTGTGGTTGCTGAACGGAGTCACCTAGTGCAG | 3400 fluorescence intensity (a.u.) |
| GTTAAATTGCCACGTAAGCACCACGTCATACCACGTCAGACGGAGTCACCTAGTGCAG | 51500 fluorescence intensity (a.u.) |
| TGGCGTGGCGCGGCGCGGCGAGGAAACGTGGACCTCTGCGCGGAGTCACCTAGTGCAG | 3780 fluorescence intensity (a.u.) |
| GCAGGGAGTACACAACGTGCACAGTCAGGTCAACAGCTGGCGGAGTCACCTAGTGCAG | 4530 fluorescence intensity (a.u.) |
| TGCACCGGGTCTACGCCCCAGTAGTAGCAGCCACCTCACCCGGAGTCACCTAGTGCAG | 4310 fluorescence intensity (a.u.) |
| TGGACCACATGGTTCAAACATGTATCAGCAAGCAAAAGGGCGGAGTCACCTAGTGCAG | 3760 fluorescence intensity (a.u.) |
| CCTTCCGTTCGACGCGACACGCGAGTCATTGCTGCCACCACGGAGTCACCTAGTGCAG | 3680 fluorescence intensity (a.u.) |
| GATCTGACAGACCTGGAGCTTATGCGTAACCTCGTCAGAACGGAGTCACCTAGTGCAG | 6640 fluorescence intensity (a.u.) |
| TAACAAGGCAAATGCCCCTTAAACAGTCAAACAACCGAGGCGGAGTCACCTAGTGCAG | 4530 fluorescence intensity (a.u.) |
| GGTCTGACGCCGCCACCACGCACGTCCTCGATTTCGCAGTCGGAGTCACCTAGTGCAG | 5230 fluorescence intensity (a.u.) |
| GGCCTCCTCGCATGGAACGCCGTCGTCTACTCGCTCCCATCGGAGTCACCTAGTGCAG | 3210 fluorescence intensity (a.u.) |
| TTGAATTTTCTGCGATGTGTGGTGACTCAGAATGTTTGCTCGGAGTCACCTAGTGCAG | 8810 fluorescence intensity (a.u.) |
| GTGTACCTACGCATCCGTCTGGACCACCTGAGCCAAAGCCCGGAGTCACCTAGTGCAG | 3190 fluorescence intensity (a.u.) |
| AGAATTCGTTTTATTATTGTTCGTGTCACTGTGGCTCACTCGGAGTCACCTAGTGCAG | 3420 fluorescence intensity (a.u.) |
| ATGCGCGCGGGACAGTGTGTGTGATGGGGTGAGCCAATTGCGGAGTCACCTAGTGCAG | 6960 fluorescence intensity (a.u.) |
| CTTCCATTTCCCAAATCCCAACCACCAAGCAAGAAAACGTCGGAGTCACCTAGTGCAG | 9040 fluorescence intensity (a.u.) |
| GTTACATACTGTGATAGTTTGTTTAATGCTAAATCTAGTACGGAGTCACCTAGTGCAG | 43300 fluorescence intensity (a.u.) |
| ACTCGGTCCAACCAAACCGGCCGCTAGTACCAATCGCTACCGGAGTCACCTAGTGCAG | 9370 fluorescence intensity (a.u.) |
| GATGGCGTATTTCAATCTTACGTTTCCCACATCTCCTCTCCGGAGTCACCTAGTGCAG | 3810 fluorescence intensity (a.u.) |
| GTTGTTGACCGTGCGTCGCTGGTTCAACGTTGATGGAGTTCGGAGTCACCTAGTGCAG | 3450 fluorescence intensity (a.u.) |
| TGTCTGTCATGTGGGGTACATAGATTGATGGTTGCTGGCTCGGAGTCACCTAGTGCAG | 3250 fluorescence intensity (a.u.) |
| GGCTACCAACACGCGTCGCTGGAGCGACACCACCACGCTGCGGAGTCACCTAGTGCAG | 3750 fluorescence intensity (a.u.) |

Reference: article PMC7819943, “Rice protein-binding microarrays: a tool to detect cis-acting elements near promoter regions in rice”
